Measured data: PubChem BioAssay AID1259424 (University of Nebraska Medical Center, 2018)

Screen: 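Find knockdowns that reproduce the expression shifts seen after KSR1 loss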 (primary screen)
Cells: human HCT116 colon cancer cells
Reagent: siRNA pool against human genes, 50 nM
Detection: 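Log2 levels of six mRNAs (branched-DNA multiplex), adjusted by two reference genes and the non-targeting median, then scored against the average KSR1 knockdown pattern as Pearson r and euclidean distance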
Direction: mean correlation with KSR1 profile: higher = expression change more like KSR1 knockdown
The deposit covers about 14,000 reagents; this is a random part of them. 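Higher correlation or smaller distance means closer resemblance to KSR1 loss; control wells, including KSR1 knockdowns, recur on many plates.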 Not all columns of the deposit are shown. No sequences are given here. Not stated in the record: the time to read-out.

With TMEM267, what was measured?
mean correlation with KSR1 profile: -0.616

With CHPF, what does the deposit list?
mean correlation with KSR1 profile: 0.428

For GAS1, what does the deposit list?
mean correlation with KSR1 profile: 0.467

For VNN2, how do the results read?
mean correlation with KSR1 profile: -0.491

What is on record for GNA13?
mean correlation with KSR1 profile: 0.692

What is on record for SLC1A5?
mean correlation with KSR1 profile: 0.317

What did the screen give for TRIM49?
mean correlation with KSR1 profile: -0.0661

What did the screen give for OPRK1?
mean correlation with KSR1 profile: 0.333

How did the screen score FST?
mean correlation with KSR1 profile: -0.464

What did the screen give for GPI?
mean correlation with KSR1 profile: -0.367

For RPL39, what does the deposit list?
mean correlation with KSR1 profile: -0.551

What did the screen give for PSMD7?
mean correlation with KSR1 profile: 0.566

Laid out differently: 2 of the entries above
{"Target gene":"TRIM49","mean correlation with KSR1 profile":-0.0661}
{"Target gene":"OPRK1","mean correlation with KSR1 profile":0.333}

Further reagents follow:
For PRRG1, how do the results read?
mean correlation with KSR1 profile: -0.53

For PCDHGA5, what does the deposit list?
mean correlation with KSR1 profile: 0.156

How did the screen score C1QA?
mean correlation with KSR1 profile: 0.335

What did the screen give for TMLHE?
mean correlation with KSR1 profile: -0.355

How did the screen score BBS10?
mean correlation with KSR1 profile: 0.362

Which result is listed for ZNF607?
mean correlation with KSR1 profile: 0.492

For SEPTIN7, what does the deposit list?
mean correlation with KSR1 profile: -0.644

With TTF2, what does the deposit list?
mean correlation with KSR1 profile: -0.0939

With FEZ1, what does the deposit list?
mean correlation with KSR1 profile: -0.449

With GORASP1, how do the results read?
mean correlation with KSR1 profile: -0.0489

Which result is listed for MTG2?
mean correlation with KSR1 profile: -0.187

With PERM1, what does the deposit list?
mean correlation with KSR1 profile: 0.27

How did the screen score MNT?
mean correlation with KSR1 profile: 0.128

With INHBB, what does the deposit list?
mean correlation with KSR1 profile: -0.142

What did the screen give for ENTREP3?
mean correlation with KSR1 profile: 0.504

With PNPLA6, how do the results read?
mean correlation with KSR1 profile: -0.00833
